Measurements reported in PubChem BioAssay AID493027 (The Scripps Research Institute Molecular Screening Center, 2011).
About 45 (2%) of roughly 2,000 compounds were called active.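 Rule for the calls: active = inhibition above the screen-wide mean inhibition plus 3 SD (cut at about 44% in these data); inactive = the rest.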 Some of the results follow.

Protein sequences, listed by entry. Tags and fused reporters are not part of them. Lines headed by an entry give the natural chain unless they say otherwise; changes in a name come on top.
UniProt O60240: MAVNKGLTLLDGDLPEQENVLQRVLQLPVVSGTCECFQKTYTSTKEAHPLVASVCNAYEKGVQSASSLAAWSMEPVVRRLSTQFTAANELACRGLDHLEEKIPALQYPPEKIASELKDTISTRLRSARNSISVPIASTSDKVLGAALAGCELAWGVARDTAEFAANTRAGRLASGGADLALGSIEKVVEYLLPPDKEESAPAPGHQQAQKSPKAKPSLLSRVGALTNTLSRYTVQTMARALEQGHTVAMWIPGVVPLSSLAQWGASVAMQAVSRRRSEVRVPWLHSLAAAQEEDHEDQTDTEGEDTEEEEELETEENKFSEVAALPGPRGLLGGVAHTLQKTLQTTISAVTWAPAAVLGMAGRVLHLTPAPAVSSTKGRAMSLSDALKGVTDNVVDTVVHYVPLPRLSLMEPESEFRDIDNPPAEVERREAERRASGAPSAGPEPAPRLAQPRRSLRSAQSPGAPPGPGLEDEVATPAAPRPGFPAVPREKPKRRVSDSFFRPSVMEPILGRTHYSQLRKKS
UniProt Q8WTS1: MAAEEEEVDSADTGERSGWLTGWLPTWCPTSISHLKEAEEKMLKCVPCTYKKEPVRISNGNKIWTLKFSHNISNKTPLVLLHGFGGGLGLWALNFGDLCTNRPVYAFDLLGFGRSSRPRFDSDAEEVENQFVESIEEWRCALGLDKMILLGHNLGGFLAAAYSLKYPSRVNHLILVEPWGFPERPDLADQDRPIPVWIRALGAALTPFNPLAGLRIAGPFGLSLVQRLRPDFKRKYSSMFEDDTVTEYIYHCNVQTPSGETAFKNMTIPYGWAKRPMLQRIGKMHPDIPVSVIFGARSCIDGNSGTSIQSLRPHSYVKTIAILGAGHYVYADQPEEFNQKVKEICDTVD

Target: Perilipin-1 (Homo sapiens) + 1-acylglycerol-3-phosphate O-acyltransferase ABHD5 (Homo sapiens) (UniProt O60240+Q8WTS1)
Assay: ABHD5-PLIN1 interaction inhibitors, pilot screen, cell lysate, split luciferase complementation, luminescence, NIH validation set (AID 493027);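 note: 0% = DMSO wells with the 100% control not disclosed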
Details: split G. princeps luciferase complementation, 4 h; at 7.9 µM, stronger effect = higher value

| Structure (SMILES) | inhibition |
| --- | --- |
| CC(=O)OCC1OC(n2ccc(=O)[nH]c2=O)C(O)C1O (configuration not stated) | inactive: -5.53% |
| COc1cccc(CC(=O)NCC2COc3ccccc3O2)c1OC (configuration not stated) | inactive: 5.43% |
| Cc1ccc2c(CN3CCN(Cc4ccc5c(c4)OCO5)CC3)cc(=O)oc2c1C | inactive: 9.15% |
| COC(=O)C1=NN(C(=O)c2cccc(Br)c2)C(O)(c2ccc(Cl)cc2)C1 (configuration not stated) | inactive: 4.06% |
| CCC1(c2ccccc2)NC(=S)N(c2ccc(C)c(C)c2)N1 (configuration not stated) | inactive: -0.55% |
| Cc1nc2ccccc2n1CC(O)Cn1c2ccccc2c2ccccc21 (configuration not stated) | inactive: 19% |
| O=C(O)CCCCCN=C1CCc2ccccc2N1 | inactive: -4.17% |
| CC1(C)CC(=O)C2=C(C1)c1c(ccc3ccccc13)NC2c1ccco1 (configuration not stated) | inactive: 21% |
| C[C@H](CCC(=O)O)[C@H]1CC[C@H]2[C@@H]3C(=O)C[C@@H]4CC(=O)CC[C@]4(C)[C@H]3CC(=O)[C@]12C | inactive: -0.3% |
| CCOc1ccc(C(=O)NC(C)C2COc3ccccc3O2)cc1 (configuration not stated) | inactive: 5.48% |
| Cc1nc2sccn2c(=O)c1CCN1CCC(=C(c2ccc(F)cc2)c2ccc(F)cc2)CC1 | inactive: 9.72% |
| CCOC(=O)C1=C(C)NC(C)=C(C(=O)OC)C1c1cccc(Cl)c1Cl (configuration not stated) | inactive: 9.57% |
| Cc1ccc2[nH]c3c(c2c1)CCNC3=O | inactive: -4.86% |
| CCSC(=O)CCCCCCCCCCCO | inactive: -18.4% |
| C=CCc1ccc(OCC(O)COc2ccc(CC=C)cc2OC)c(OC)c1 | inactive: -1.62% |
| COc1ccc(-c2[nH]ncc2CN(C)C(C)c2ccon2)c(OC)c1 (configuration not stated) | inactive: -7.51% |
| Cc1ncoc1C(=O)N1CCCC(C(=O)c2ccc(-c3ccccc3)c(F)c2)C1 (configuration not stated) | inactive: 3.98% |
| O=C(O)c1cnccn1 | inactive: 1.39% |
| CCN(CC)Cc1c[nH]c2c(C(=O)OC)cccc12 | inactive: -5.49% |
| COc1ccc(/C=C/C(=O)c2cc3cccc(OC)c3oc2=O)cc1 | active: 60.6% |
| CN1CCN2c3ccccc3Cc3ccccc3C2C1 (configuration not stated) | inactive: -6.34% |
| O=C(O)CCC(=O)c1ccc(-c2ccccc2)cc1 | inactive: -10.1% |
| O=C1c2cccc3cccc(c23)C(=O)N1c1ccccn1 | inactive: -1.6% |
| Cc1cc(C)c(NC(=O)NC(=O)C(Cl)(Cl)Cl)c(C)c1 | inactive: -16.6% |
| CC(C)NNC(=O)c1ccncc1 | inactive: -4.87% |

| Structure (SMILES) | inhibition |
| --- | --- |
| CC(=O)N(CCC1(C(C)C)CCOC(C)(C)C1)Cc1ccco1 (configuration not stated) | inactive: 2.37% |
| CC(=O)N=c1sc(S(N)(=O)=O)nn1C | inactive: -1.46% |
| Cc1ccccc1C(=O)NNc1ncnc2c1cnn2C | inactive: -10.4% |
| COc1ccc2[nH]cc(C3N4CC5(C)CN3CC(C)(C4)C5=O)c2c1 (configuration not stated) | inactive: -6.37% |
| COc1c2occc2c(OC)c2c(=O)cc(C(F)(F)C(F)(F)F)oc12 | inactive: -3.55% |
| CCOc1ccc2[nH]c3c(=O)n(CCc4ccc(OC)cc4)cnc3c2c1 | inactive: -9.05% |
| OC(CCN1CCCCC1)(c1ccccc1)c1ccccc1 | inactive: 5.55% |
| CC(=O)[C@H]1[C@H](C#N)C[C@H]2[C@@H]3CC=C4C[C@@H](O)CC[C@]4(C)[C@H]3CC[C@@]21C | inactive: 12.6% |
| COc1ccc(C(CC(=O)N2CCOCC2)C(C)C)cc1 (configuration not stated) | inactive: -0.52% |
| N=c1ccn(CC(=O)NC(N)=O)c2ccccc12 | inactive: 2.11% |
| CC1(C)CC(C(CC(=O)N2CCCC2)Cc2ccccc2)CCO1 (configuration not stated) | inactive: -12.5% |
| OC(COCc1ccccc1)CN1CCN(Cc2ccc3c(c2)OCO3)CC1 (configuration not stated) | inactive: -12.6% |
| O=C(NCC1CCCO1)c1ccc(OC2CCN(C(=O)C3CC3)CC2)cc1 (configuration not stated) | inactive: 0.05% |
| O=C(O)C1CCN(C(=O)COc2ccc3c4c(c(=O)oc3c2)CCC4)CC1 | inactive: -8.92% |
| Cc1cc(-c2nn(-c3ccccc3F)cc2CN2CCC(O)CC2)c(C)s1 | inactive: -2.82% |
| CC[C@H](CO)NCCN[C@H](CC)CO | inactive: -1.97% |
| Cc1ccccc1NC(=O)C1(C)Cc2ccccc2C(=O)O1 (configuration not stated) | inactive: -6.22% |
| CCOC(=O)[C@H]1O[C@@H]1C(=O)N[C@@H](CC(C)C)C(=O)NCCC(C)C | inactive: -15.4% |
| CC(C)NCC(O)COc1ccc(CC(N)=O)cc1 (configuration not stated) | inactive: 1.91% |
| CC1=NS(=O)(=O)c2cc(Cl)ccc2N1 | inactive: -5.93% |
| c1ccc(-c2ccc(C(c3ccccc3)n3ccnc3)cc2)cc1 (configuration not stated) | inactive: 7.37% |
| CN(C)CCC(c1ccc(Br)cc1)c1ccccn1 (configuration not stated) | inactive: -7.82% |
| CC(=O)NC1C(OCc2ccccc2)OC(COC(C)=O)C(OC(C)=O)C1OC(C)=O (configuration not stated) | inactive: 2.99% |
| CCOc1ccc(NC(=O)N[C@@H](CCSC)C(=O)OC)cc1 | inactive: -9.1% |
| C[C@]12CCC(=O)C=C1CC[C@@H]1[C@@H]2CC[C@@]2(C)[C@H]1CC[C@]2(O)C(=O)CO | inactive: 1.92% |

| Structure (SMILES) | inhibition |
| --- | --- |
| Cc1oc2ccc(OC(=O)c3cccs3)cc2c1C(=O)OC(C)C | inactive: 1.63% |
| COc1ccc(C2NCCC3(O)CCCCC23)c(OC)c1OC (configuration not stated) | inactive: -1.74% |
| COc1ccc(C2C(C#N)=C(N)Oc3cc(C)[nH]c(=O)c32)c(OC)c1OC (configuration not stated) | inactive: -14.5% |
| CCC1(c2ccccc2)C(=O)NCNC1=O | inactive: 1.31% |
| O=C(CSCc1ccccc1)NCCCN1CCOCC1 | inactive: -14.5% |
| CCC(C(=O)Nc1ccc2c(c1)OCCO2)c1ccccc1 (configuration not stated) | inactive: -3.61% |
| Cc1ccc(C2CC(=O)C(C=NCCN3CCN(C(=S)Nc4ccccc4)CC3)=C(O)C2)cc1 (configuration not stated) | inactive: -4.47% |
| O=C(OCC1OC2OC3(CCCCC3)OC2C2OC3(CCCCC3)OC12)c1ccccc1 (configuration not stated) | inactive: -8.19% |
| c1ccc2c3c(c(CN4CCCCC4)cc2c1)COC3 | inactive: -4.68% |
| Cc1ccc(CSCC(=O)N2CCCC2)cc1 | inactive: -3% |
| Cc1ccc(OCc2nc(-c3cccnc3)no2)cc1C | inactive: 4.89% |
| Nc1cnn(C2OC(CO)C(O)C2O)c(=O)n1 (configuration not stated) | inactive: -9.89% |
| Clc1ccc2c(c1)CCc1cccnc1C2=C1CCNCC1 | inactive: 1.26% |
| COc1ccc(CCN2C(=O)CSC2c2ccc(OC)c(OC)c2)cc1OC (configuration not stated) | inactive: 1.8% |
| CCc1c(C(C)=O)oc2ccc3c(C)cc(=O)oc3c12 | inactive: -0.52% |
| O=C1c2ccccc2N2C(=O)c3ccccc3C2N1Cc1ccco1 (configuration not stated) | inactive: 21.5% |
| CC12CN3CC(C)(CN(C1)C3c1ccc([N+](=O)[O-])o1)C2 (configuration not stated) | inactive: -1.9% |
| CC1(C)CC(NCc2ccccc2)CCO1 (configuration not stated) | inactive: -5.32% |
| CCN(CC)C(=O)c1ccc(O)c(OC)c1 | inactive: -1.24% |
| O=C(/C=C/c1ccc(Cl)cc1)NCCc1ccccc1 | inactive: 0.13% |
| COc1ccc(-c2nc3c(=O)n(C)c(=O)[nH]c3n2CCc2ccccc2)cc1 | inactive: -1.13% |
| CC(=O)[C@@]1(O)CC[C@H]2[C@@H]3CCC4=CC(=O)CC[C@]4(C)[C@H]3CC[C@@]21C | inactive: -1.37% |
| CC(C)CC(=O)N(Cc1ccc(F)cc1)C1CCS(=O)(=O)C1 (configuration not stated) | inactive: -7.18% |
| COc1ccccc1NC(=O)Cn1c(C)cc(=O)c2cccc(OC)c21 | inactive: 7.27% |
| CNCCc1ccccn1 | inactive: -2.31% |

Part of the list above, set out differently.
CC1(C)CC(NCc2ccccc2)CCO1 (configuration not stated)
  inhibition: inactive: -5.32%
CCN(CC)C(=O)c1ccc(O)c(OC)c1
  inhibition: inactive: -1.24%

Continued:

| Structure (SMILES) | inhibition |
| --- | --- |
| CC(C)CC(NC(=O)c1cccc(Cl)c1)C(=O)O (configuration not stated) | inactive: -9.25% |
| CC(C)CCNC(=O)[C@H](CC(C)C)NC(=O)[C@H]1O[C@@H]1C(=O)O | inactive: -3.69% |
| CCOc1ccc(N2C(=O)CNC2=S)cc1 | inactive: -7.79% |
| Nc1nc2c(ncn2COC(CO)CO)c(=O)[nH]1 | inactive: -6.19% |
| CC(=O)OC[C@H]1O[C@@H](Sc2cccc3cccnc23)[C@H](OC(C)=O)[C@@H](OC(C)=O)[C@H]1OC(C)=O | inactive: -12.3% |
| Cc1ncc(CN2CCC(CO)(CCc3ccccc3)CC2)s1 | inactive: -4.02% |
| O=C(/C=C/c1ccccc1)NCC1(c2ccccc2)CCOCC1 | inactive: -4.47% |
| CC1(C)C2CCC1(C)C(OCC[N+](C)(C)CC(=O)OC1CCCCC1)C2 (configuration not stated) | inactive: 7.62% |
| COc1ccc(CCn2c(C)cc3c(c2=O)C(c2ccncc2)C(C#N)=C(N)O3)cc1OC (configuration not stated) | inactive: 4.33% |
| CC(C)CN(C)Cc1c(C(=O)N2CCc3ccccc3C2)nc2ccc(Cl)cn12 | inactive: 2.31% |
| COc1ccc(C(=O)N2c3cc4c(cc3C(C)=CC2(C)C)OCO4)cc1 | inactive: -4.62% |
| Cc1cc(C(=O)NC(CC(C)C)C(=O)O)cc(C)c1[N+](=O)[O-] (configuration not stated) | inactive: 0.07% |
| NC(N)=NC(N)=Nc1ccc2ccccc2c1 | inactive: -6.89% |
| COc1ccc(O)c(C2=Nc3ccccc3N=C(c3ccccc3)C2)c1 | inactive: -7.58% |
| CCCNC(=O)NS(=O)(=O)c1ccc(Cl)cc1 | inactive: -4.84% |
| CC(=O)O[C@]1(C(C)=O)CC[C@H]2[C@@H]3C=C(Cl)C4=CC(=O)CC[C@]4(C)[C@H]3CC[C@@]21C | inactive: 3.4% |
| Cc1csc(N)n1 | inactive: -6.64% |
| COc1cc2nc(N3CCN(C(=O)C4COc5ccccc5O4)CC3)nc(N)c2cc1OC (configuration not stated) | inactive: -2.94% |
| C[C@@H]1C[C@H]2[C@@H]3CCC4=CC(=O)C=C[C@]4(C)[C@@]3(F)[C@@H](O)C[C@]2(C)[C@H]1C(=O)CO | inactive: -2.1% |
| COC(=O)c1cc(COc2ccc3ccc(=O)oc3c2)c(C)o1 | inactive: -9.09% |
| CCN(CCCCOC(=O)c1ccc(OC)c(OC)c1)C(C)Cc1ccc(OC)cc1 (configuration not stated) | inactive: -6.73% |
| Cc1cc(C(C)(C)C)cc(C)c1CC1=NCCN1 | inactive: -5.42% |

An excerpt of these results, as tab-separated lines.
Structure (SMILES)	inhibition
CC(C)CC(NC(=O)c1cccc(Cl)c1)C(=O)O (configuration not stated)	inactive: -9.25%
CC(C)CN(C)Cc1c(C(=O)N2CCc3ccccc3C2)nc2ccc(Cl)cn12	inactive: 2.31%
COc1ccc(C(=O)N2c3cc4c(cc3C(C)=CC2(C)C)OCO4)cc1	inactive: -4.62%
